From patent US20240010753A1
Substitutions are numbered along the chain they refer to. Results are given in words; binding and its absence hold for the method and conditions named. Some entries that bind do so weakly or less than the wild type. One block for each binder: values may come before it.

Amino acid sequences for entries named in this document (tags omitted). A change or cut given only in a name is not applied to a line headed by its entry.
UniProt P07766: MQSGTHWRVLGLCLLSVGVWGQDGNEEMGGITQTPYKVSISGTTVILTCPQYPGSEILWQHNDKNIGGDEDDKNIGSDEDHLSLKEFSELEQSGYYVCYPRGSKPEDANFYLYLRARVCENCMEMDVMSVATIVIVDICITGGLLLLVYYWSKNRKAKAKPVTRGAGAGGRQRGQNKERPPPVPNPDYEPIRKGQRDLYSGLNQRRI

Experiments:
[1] = target: human CD3 on cells (human) (UniProt P07766); test: flow cytometry on CHO-CD3-TCR cells, MFI
[2] = target: human CD3 on cells (human) (UniProt P07766); test: flow cytometry on CHO-CD3-TCR cells
[3] = target: human CD3 on cells (human) (UniProt P07766); test: flow cytometry on human CD3-expressing Jurkat T cells

binding [1]: binds
binding [2]: binds
binding [3]: binds
B1: HuEM0006-01-24 (antibody, V domains shown)
VH: EVQLVQSGAEVKKPGASVKVSCKASGFSFTNYYVHWMRQAPGQGLEWMGWISPGSDNTKYNEKFKGRVTMTRDTSISTAYMELSRLRSDDTAVYYCARDDYGNYYFDYWGQGTTVTVSS
VL: DIVMTQSPDSLAVSLGERATINCKSSQSLLNARTRKNYLAWYQQKPGQPPKLLIYWASTRESGVPDRFSGSGSGTDFTLTISSLQAEDVAVYYCKQSYILRTFGGGTKVEIK

binding [1]: binds
binding [2]: binds
binding [3]: binds
B2: HuEM0006-01-27 (antibody, V domains shown)
VH: B1 VH with M48I, M70L, R72A
VL: B1 VL
